According to PMC6219760:
No constants are given. Whether binding was seen depends on the method and setting. Binding seen in cells or lysates may run through a third protein. Some results given as binding are weak or reduced against the parent protein; the word gives no strength. Tags and fused reporters may be left off the sequences shown.

What was measured:
[1] = molecular target: T1, Buc-GFP, in vitro translated (wt Buc) (zebrafish) (UniProt H0WFA5); test: pull-down; in vitro translated proteins, RNase treatment prior to GFP pulldown, Western blot
T1 sequence: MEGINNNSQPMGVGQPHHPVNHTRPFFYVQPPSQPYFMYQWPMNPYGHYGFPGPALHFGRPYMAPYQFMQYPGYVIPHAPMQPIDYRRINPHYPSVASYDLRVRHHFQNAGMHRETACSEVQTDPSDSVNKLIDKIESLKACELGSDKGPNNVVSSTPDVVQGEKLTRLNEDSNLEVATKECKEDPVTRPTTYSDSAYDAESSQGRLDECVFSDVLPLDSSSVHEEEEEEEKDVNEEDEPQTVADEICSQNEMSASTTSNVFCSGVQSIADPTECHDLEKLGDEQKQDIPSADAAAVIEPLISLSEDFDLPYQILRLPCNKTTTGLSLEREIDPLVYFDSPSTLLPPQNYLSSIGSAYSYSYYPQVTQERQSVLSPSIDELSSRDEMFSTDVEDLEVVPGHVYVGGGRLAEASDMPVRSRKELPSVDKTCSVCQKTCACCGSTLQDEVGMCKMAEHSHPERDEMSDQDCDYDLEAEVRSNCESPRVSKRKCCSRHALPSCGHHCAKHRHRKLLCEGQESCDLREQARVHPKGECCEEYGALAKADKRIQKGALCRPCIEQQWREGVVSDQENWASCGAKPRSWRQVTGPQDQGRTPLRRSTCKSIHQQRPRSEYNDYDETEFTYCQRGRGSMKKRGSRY

[2] = molecular target: T1, Buc-GFP, in vitro translated (wt Buc) (zebrafish); test: pull-down; in vitro translated proteins diluted in YSS buffer, GFP fusions held on GFP Trap beads, Western blot
[3] = molecular target: T2, Buc^p106-GFP (1-601), in vitro translated (zebrafish) (UniProt H0WFA5); test: as above
T2 sequence: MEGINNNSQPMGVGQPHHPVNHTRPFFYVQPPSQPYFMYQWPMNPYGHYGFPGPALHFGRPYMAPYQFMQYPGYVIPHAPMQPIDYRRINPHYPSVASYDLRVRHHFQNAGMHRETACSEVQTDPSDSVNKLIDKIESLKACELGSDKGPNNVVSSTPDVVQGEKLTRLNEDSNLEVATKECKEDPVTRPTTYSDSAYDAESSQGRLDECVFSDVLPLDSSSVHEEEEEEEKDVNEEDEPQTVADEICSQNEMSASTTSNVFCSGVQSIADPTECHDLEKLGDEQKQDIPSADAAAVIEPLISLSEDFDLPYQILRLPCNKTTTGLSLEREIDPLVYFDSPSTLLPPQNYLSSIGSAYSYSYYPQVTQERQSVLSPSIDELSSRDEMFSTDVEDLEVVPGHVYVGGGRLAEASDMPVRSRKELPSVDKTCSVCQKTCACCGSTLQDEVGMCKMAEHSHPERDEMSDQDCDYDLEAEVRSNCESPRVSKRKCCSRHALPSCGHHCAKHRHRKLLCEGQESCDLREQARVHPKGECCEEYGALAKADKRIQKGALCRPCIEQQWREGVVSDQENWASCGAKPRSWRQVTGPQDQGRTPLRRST

[4] = molecular target: T3, Buc^p43-GFP (1-361), in vitro translated (zebrafish) (UniProt H0WFA5); test: as above
T3 sequence: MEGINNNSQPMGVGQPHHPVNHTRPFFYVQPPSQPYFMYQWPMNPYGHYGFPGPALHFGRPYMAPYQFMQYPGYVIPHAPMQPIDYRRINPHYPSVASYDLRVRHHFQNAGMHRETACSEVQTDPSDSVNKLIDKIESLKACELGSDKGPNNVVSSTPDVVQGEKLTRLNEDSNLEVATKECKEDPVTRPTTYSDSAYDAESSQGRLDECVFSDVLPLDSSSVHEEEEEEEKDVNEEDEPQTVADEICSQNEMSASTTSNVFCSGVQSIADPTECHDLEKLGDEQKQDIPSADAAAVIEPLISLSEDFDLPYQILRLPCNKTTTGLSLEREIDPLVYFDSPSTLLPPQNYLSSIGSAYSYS

[5] = molecular target: T4, Buc-GFP (Bucky ball fused to eGFP), from transgenic zebrafish (zebrafish) (UniProt H0WFA5); test: co-IP; GFP-Trap immunoprecipitation from extracts of 3 hpf Buc-GFP or H2A-GFP transgenic zebrafish embryos, blotted with GFP and Vasa antibodies
T4 sequence: T1 sequence

[6] = molecular target: T5, Buc-VC (Buc fused to the C-terminal fragment of split Venus) (zebrafish) (UniProt H0WFA5); test: split reporter; BiFC with split Venus (VN, VC); mRNAs (200 pg each) injected into one-cell zebrafish embryos, fluorescence imaged at 3 hpf
T5 sequence: T1 sequence

B1: zebrafish Vasa, in vitro translated (protein, UniProt O42107 1-716)
chain: MDDWEEDQSPVVSCSSGFGLGSNGSDGGFKSFYTGGAGNDKSNSEGTEGSSWKMTGDSFRGRGGRGGSRGGRGGFSGFKSEIDENGSDGGWNGGESRGRGRGGFRGGFRSGSRDENDENRNDDGWKGGESRGRGRGGFGGSFRGGFRDGGNEDTGRRGFGRENNENGNDEGGEGRGRGRGGFRGGFRDGGGDESGKRGFGRGGFRGRNEEVFSKVTTADKLDQEGSENAGPKVVYVPPPPPEEESSIFSHYATGINFDKYDDILVDVSGSNPPKAIMTFEEAGLCDSLSKNVSKSGYVKPTPVQKHGIPIISAGRDLMACAQTGSGKTAAFLLPILQRFMTDGVAASKFSEIQEPEAIIVAPTRELINQIYLEARKFAYGTCVRPVVVYGGINTGYTIREVLKGCNVLCATPGRLHDLIGRGKIGLSKVRYLVLDEADRMLDMGFEPEMRKLVASPGMPSKEERQTLMFSATYPEDIQRMAADFLKVDYIFLAVGVVGGACSDVEQTVVQVDQYSKRDQLLELLRATGNERTMVFVETKRSADFIATFLCQEKISTTSIHGDREQREREKALSDFRLGHCPVLVATSVAARGLDIEQVQHVVNFDMPSSIDEYVHRIGRTGRCGNTGRAVSFFNPESDTPLARSLVKVLSGAQQVVPKWLEEVAFSAHGTTGFNPRGKVFASTDSRKGGSFKSDEPPPSQTSAPSAAAAADDEEWE
- binding [1]: binds
- binding [2]: binds
- binding [3]: binds
- binding [4]: binds

B2: Vasa (Ddx4), endogenous in zebrafish embryos (protein, UniProt O42107 1-716)
chain: B1 chain
- binding [5]: binds

B3: Vasa-VN (Vasa fused to the N-terminal fragment of split Venus) (protein, UniProt O42107 1-716)
chain: B1 chain
- binding [6]: binds
